Assay results published in the supplement of paper PMC10849652.
The list shows a part of the results.

By UniProt entry, the sequences of proteins in these tests, tags left out. Where a name states a change or a piece, a line headed by the entry shows the natural chain unless it says otherwise.
UniProt Q8NCJ5: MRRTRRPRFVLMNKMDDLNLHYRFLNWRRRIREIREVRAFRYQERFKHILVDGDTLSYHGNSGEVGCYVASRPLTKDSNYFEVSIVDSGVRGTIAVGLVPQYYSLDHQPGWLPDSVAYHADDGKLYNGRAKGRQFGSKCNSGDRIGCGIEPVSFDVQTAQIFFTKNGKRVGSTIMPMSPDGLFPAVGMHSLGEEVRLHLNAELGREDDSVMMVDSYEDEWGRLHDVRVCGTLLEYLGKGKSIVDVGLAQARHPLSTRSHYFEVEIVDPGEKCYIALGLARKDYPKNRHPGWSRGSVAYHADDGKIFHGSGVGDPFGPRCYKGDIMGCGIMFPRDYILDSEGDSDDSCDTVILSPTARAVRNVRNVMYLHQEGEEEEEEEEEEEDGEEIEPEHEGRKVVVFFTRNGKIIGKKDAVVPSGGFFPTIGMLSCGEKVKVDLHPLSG
UniProt Q8N0X7: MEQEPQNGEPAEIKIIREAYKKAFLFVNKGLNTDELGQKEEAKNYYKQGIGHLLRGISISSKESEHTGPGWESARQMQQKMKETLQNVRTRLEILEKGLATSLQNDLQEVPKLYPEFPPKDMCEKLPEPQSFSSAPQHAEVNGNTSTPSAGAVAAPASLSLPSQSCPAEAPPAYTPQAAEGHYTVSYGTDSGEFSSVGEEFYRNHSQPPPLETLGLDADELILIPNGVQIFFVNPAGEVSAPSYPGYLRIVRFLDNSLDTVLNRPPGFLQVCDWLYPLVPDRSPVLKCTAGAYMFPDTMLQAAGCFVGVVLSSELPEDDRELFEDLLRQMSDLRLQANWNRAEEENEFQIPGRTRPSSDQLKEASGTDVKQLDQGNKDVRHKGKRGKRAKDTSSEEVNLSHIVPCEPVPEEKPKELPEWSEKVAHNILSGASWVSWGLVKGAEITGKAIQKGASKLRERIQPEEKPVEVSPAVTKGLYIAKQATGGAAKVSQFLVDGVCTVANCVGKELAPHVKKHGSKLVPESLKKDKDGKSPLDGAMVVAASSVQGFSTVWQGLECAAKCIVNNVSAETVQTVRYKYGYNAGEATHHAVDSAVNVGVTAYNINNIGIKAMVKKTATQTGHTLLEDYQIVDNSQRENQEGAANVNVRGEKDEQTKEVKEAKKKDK
UniProt Q9NSC7: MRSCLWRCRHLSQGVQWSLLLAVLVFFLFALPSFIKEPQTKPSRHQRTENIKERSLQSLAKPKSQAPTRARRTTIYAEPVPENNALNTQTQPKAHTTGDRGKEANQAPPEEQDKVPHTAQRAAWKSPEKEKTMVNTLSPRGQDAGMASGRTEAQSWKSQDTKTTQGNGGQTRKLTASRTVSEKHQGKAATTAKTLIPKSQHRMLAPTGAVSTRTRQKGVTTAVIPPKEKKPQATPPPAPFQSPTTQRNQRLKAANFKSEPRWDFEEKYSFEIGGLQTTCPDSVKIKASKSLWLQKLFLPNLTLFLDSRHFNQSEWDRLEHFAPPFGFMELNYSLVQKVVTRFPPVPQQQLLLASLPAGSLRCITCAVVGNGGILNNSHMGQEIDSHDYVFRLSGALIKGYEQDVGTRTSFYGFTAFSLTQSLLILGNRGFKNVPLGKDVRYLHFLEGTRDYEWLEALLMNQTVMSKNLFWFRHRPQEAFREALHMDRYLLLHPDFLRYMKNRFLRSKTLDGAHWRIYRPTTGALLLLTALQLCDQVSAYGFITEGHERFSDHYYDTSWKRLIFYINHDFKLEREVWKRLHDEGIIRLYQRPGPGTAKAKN
UniProt Q8WVM7: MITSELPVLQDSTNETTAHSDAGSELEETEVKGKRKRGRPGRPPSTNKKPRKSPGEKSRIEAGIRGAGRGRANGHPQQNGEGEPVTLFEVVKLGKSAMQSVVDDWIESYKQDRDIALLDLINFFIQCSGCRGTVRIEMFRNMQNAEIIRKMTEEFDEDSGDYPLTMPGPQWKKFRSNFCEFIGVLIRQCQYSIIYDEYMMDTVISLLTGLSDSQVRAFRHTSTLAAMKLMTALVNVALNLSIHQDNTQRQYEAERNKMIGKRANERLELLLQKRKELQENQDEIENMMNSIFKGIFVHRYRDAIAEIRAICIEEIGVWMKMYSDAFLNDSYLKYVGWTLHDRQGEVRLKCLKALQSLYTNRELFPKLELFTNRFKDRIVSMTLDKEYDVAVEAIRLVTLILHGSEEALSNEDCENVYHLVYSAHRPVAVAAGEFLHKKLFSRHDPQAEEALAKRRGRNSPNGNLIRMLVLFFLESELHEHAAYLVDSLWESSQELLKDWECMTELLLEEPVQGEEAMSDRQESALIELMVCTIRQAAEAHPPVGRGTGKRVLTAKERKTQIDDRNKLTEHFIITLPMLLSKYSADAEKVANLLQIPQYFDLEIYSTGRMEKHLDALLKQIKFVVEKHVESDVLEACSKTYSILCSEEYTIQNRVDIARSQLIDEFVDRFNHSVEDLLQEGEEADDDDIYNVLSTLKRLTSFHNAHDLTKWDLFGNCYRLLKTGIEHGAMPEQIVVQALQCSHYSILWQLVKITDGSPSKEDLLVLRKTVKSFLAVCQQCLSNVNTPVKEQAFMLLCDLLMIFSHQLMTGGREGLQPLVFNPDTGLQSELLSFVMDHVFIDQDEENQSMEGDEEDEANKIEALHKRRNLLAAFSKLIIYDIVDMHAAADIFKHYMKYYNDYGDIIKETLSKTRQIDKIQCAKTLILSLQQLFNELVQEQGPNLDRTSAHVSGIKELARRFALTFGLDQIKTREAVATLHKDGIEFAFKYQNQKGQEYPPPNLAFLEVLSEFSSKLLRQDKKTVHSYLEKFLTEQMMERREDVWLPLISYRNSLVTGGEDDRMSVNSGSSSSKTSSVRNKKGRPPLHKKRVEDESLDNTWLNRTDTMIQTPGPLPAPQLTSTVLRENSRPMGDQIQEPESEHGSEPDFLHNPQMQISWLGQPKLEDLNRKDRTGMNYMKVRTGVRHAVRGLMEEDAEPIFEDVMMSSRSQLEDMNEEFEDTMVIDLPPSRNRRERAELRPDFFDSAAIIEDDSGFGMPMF
UniProt Q16385, whole entry, looked up: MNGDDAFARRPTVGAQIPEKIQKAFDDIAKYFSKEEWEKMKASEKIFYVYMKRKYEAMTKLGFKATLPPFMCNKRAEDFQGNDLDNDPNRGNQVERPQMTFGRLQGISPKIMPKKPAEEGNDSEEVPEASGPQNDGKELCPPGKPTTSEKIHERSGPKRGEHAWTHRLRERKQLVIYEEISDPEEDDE
UniProt P10124: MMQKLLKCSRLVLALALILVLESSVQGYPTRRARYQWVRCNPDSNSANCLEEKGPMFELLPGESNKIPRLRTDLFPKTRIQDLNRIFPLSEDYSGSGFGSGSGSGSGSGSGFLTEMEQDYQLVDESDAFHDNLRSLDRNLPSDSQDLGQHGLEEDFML
UniProt O60225: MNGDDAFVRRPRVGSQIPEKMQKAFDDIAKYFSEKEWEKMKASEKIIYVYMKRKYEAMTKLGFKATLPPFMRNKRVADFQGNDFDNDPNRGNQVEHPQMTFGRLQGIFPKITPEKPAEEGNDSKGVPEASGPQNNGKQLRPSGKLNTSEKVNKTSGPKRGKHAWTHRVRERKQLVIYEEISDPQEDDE
UniProt Q658P3: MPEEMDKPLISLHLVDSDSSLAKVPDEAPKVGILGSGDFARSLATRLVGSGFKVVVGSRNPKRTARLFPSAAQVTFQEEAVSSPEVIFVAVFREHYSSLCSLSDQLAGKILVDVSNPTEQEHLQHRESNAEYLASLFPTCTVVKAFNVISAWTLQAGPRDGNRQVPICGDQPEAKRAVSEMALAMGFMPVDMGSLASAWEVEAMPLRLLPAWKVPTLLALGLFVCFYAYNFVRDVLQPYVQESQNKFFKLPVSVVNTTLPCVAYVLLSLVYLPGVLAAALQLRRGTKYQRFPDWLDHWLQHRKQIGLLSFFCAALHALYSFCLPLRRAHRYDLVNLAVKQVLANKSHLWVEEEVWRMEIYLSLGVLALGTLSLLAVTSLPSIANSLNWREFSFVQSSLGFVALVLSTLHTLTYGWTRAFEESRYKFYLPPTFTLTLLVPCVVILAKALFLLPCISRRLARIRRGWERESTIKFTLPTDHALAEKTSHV
UniProt P51571: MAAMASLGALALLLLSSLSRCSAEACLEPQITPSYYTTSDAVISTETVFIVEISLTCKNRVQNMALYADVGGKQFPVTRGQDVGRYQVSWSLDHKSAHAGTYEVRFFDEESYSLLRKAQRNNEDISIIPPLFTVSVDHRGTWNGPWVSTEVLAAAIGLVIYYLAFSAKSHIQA
UniProt Q9UNL2: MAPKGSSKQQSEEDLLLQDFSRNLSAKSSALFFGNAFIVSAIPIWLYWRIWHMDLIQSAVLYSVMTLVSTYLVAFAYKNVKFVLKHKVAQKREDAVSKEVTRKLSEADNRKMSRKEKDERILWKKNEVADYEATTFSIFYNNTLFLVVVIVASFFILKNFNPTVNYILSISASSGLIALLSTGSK

Legend:
Assay in all cases: log2 fold change, soluble protein after heating vs DMSO (PISA); higher = thermal stabilisation; K562 lysate, 10 uM; active = over 0.2 and 3.5 SD of the protein, either way, in both replicates (recomputed)
[1] = compound: C=CC(=O)N1CCC[C@@H](n2nc(-c3ccc(Oc4ccccc4)cc3)c3c(N)ncnc32)C1 [ibrutinib]
Outline: (§1)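 To prepare the extract, K562 pellets were dounce-homogenised in PBS pH 7.4 with 1 mM MgCl2, giving crude material at 1 mg/mL protein. This was treated with 10 μM compound for 30 min, then heated in aliquots for 3 min over 48°C-58°C before pooling and addition of NP-40 to 0.5% at 4°C. Centrifugation at 21,000xg for 90 min left soluble protein in the supernatant, which TMTpro 16plex LC-MS/MS quantified with equalised channel sums. Results are log-two fold changes in thermal stability compared with solvent controls, from duplicates.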

[2] = compound: CC(C)(C)Cn1c(N)nc2ccc(-c3[nH]c(C(C)(C)C)nc3-c3ccc(F)cc3)nc21 [ralimetinib]
Outline: as §1

[3] = compound: CC(C)(O)CC(=O)NCCn1ccc2ncnc(Nc3ccc(Oc4cccc(C(F)(F)F)c4)c(Cl)c3)c21
Outline: as §1

[4] = compound: CC(C)C1=C2N=C(C=C(N2N=C1)NCC3=CC=CC=C3)NCCCCCCN
Outline: as §1

[5] = compound: CC1=C(C=C(C=C1)NC(=O)C2=CC(=CC=C2)C(C)(C)C#N)NC3=CC4=C(C=C3)N=CN(C4=O)C
Outline: as §1

[6] = compound: CC1=C(C=C(C=C1)NC(=O)C2=CC(=CC=C2)N(C)C)NC(=O)C3=CC=C(C=C3)O
Outline: as §1

[7] = compound: CCN(CCCOc1ccc2c(Nc3cc(CC(=O)Nc4cccc(F)c4)[nH]n3)ncnc2c1)CCOP(=O)(O)O [barasertib]
Outline: as §1

[8] = compound: CCn1c(C(=O)N(C2CC2)C2CC2)cc2c3c(ncn3C)c(Nc3cc(C)n(C)n3)nc21
Outline: as §1

[9] = compound: CCn1cc(-c2ccnc3[nH]c(-c4cccc(CN(C)C)c4)cc23)c(-c2ccc(NC(=O)N(C)C)cc2)n1
Outline: as §1

[10] = compound: CN1CCC(CNc2ccc3ncc(-c4cccc(OC(F)(F)F)c4)n3n2)CC1
Outline: as §1

[11] = compound: CN1CCN(c2nc(C3=C(c4c[nH]c5ccccc45)C(=O)NC3=O)c3ccccc3n2)CC1 [sotrastaurin]
Outline: as §1

[12] = compound: CC(=O)c1cnc2ccc(-c3cc(Cl)c(O)c(Cl)c3)nc2c1N[C@H]1CC[C@H](CN(C)C)CC1
Outline: as §1

[13] = compound: CC1=C(C(CC(=O)N1)C2=CC=C(C=C2)C(F)(F)F)C(=O)NC3=C(C=C4C(=C3)C=NN4)F
Outline: as §1

[14] = compound: CC1=C(C2=C(C=C1)C(=O)C3=CC=CC=C3N2CCCN)C
Outline: as §1

[15] = compound: CC1=CC=C(C=C1)SC2=C3C=C(SC3=CN=C2)C(=O)N
Outline: as §1

[16] = compound: CCCS(=O)(=O)Nc1ccc(F)c(C(=O)c2c[nH]c3ncc(-c4ccc(Cl)cc4)cc23)c1F [vemurafenib]
Outline: as §1

[17] = compound: CCCS(=O)(=O)Nc1ccc(F)c(C(=O)c2c[nH]c3ncc(Cl)cc23)c1F
Outline: as §1

[18] = compound: CC[C@@H]1C(=O)N(C)c2cnc(Nc3ccc(C(=O)NC4CCN(C)CC4)cc3OC)nc2N1C1CCCC1
Outline: as §1

[19] = compound: CC[C@@H]1C(=O)N(C)c2cnc(Nc3ccc(C(=O)N[C@H]4CC[C@H](N5CCN(CC6CC6)CC5)CC4)cc3OC)nc2N1C(C)C [volasertib]
Outline: as §1

[20] = compound: CN1CCN(CCOc2cc(OC3CCOCC3)c3c(Nc4c(Cl)ccc5c4OCO5)ncnc3c2)CC1 [saracatinib]
Outline: as §1

Row | Target | log2 fold change [1] | log2 fold change [2] | log2 fold change [3] | log2 fold change [4] | log2 fold change [5] | log2 fold change [6] | log2 fold change [7] | log2 fold change [8] | log2 fold change [9] | log2 fold change [10] | log2 fold change [11] | log2 fold change [12] | log2 fold change [13] | log2 fold change [14] | log2 fold change [15] | log2 fold change [16] | log2 fold change [17] | log2 fold change [18] | log2 fold change [19] | log2 fold change [20]
1 | SPRYD3 (UniProt Q8NCJ5) | inactive: 0.031 | inactive: -0.045 | inactive: 0.017 | inactive: 0.051 | inactive: 0.001 | inactive: 0.035 | inactive: 0.007 | inactive: -0.022 | inactive: -0.369 | inactive: -0.146 | inactive: 0 |  |  |  |  |  |  |  |  | 
2 | SPART (UniProt Q8N0X7) | inactive: -0.039 | inactive: 0.017 | inactive: -0.015 | inactive: 0.01 | inactive: -0.008 | inactive: 0.017 | inactive: -0.038 | inactive: -0.013 | inactive: 0.015 | inactive: -0.045 | inactive: 0.008 | inactive: -0.054 | inactive: 0.083 | inactive: 0.027 | inactive: -0.014 | inactive: -0.02 | inactive: 0.008 | inactive: 0.086 | inactive: 0.024 | inactive: -0.009
3 | SRP14 (UniProt H0YLW0) | inactive: -0.052 | inactive: -0.292 | inactive: -0.362 | inactive: 0.031 | inactive: 0.418 | inactive: 0.061 | inactive: 0.037 | inactive: -0.576 | inactive: -0.199 | inactive: 0.231 | inactive: -0.097 | inactive: -0.057 |  | inactive: -0.261 | inactive: -0.074 |  | inactive: 0.013 |  | inactive: -0.02 | inactive: 0.069
4 | ST6GALNAC1 (UniProt Q9NSC7) | inactive: 0.041 | inactive: 0.09 | inactive: 0.023 | inactive: -0.008 | inactive: 0 | inactive: -0.061 | inactive: 0.049 | inactive: 0.029 | inactive: -0.065 | inactive: 0.033 | inactive: -0.04 |  | inactive: 0.091 | inactive: -0.059 |  | inactive: -0.216 |  | inactive: 0.098 |  | inactive: -0.063
5 | STAG1 (UniProt Q8WVM7) | inactive: -0.062 | inactive: -0.022 | inactive: -0.059 | inactive: -0.029 | inactive: -0.082 | inactive: -0.004 | inactive: -0.064 | inactive: 0.016 | inactive: -0.244 | inactive: 0.067 | inactive: 0.066 | inactive: -0.045 | inactive: 0 | inactive: -0.054 | inactive: 0.014 |  | inactive: -0.025 | inactive: -0.088 | inactive: -0.081 | inactive: 0.024
6 | SSX2 (UniProt Q16385) | inactive: 0.057 | inactive: 0.036 | inactive: 0.058 | inactive: 0.01 | inactive: -0.02 | inactive: -0.036 | inactive: 0.024 | inactive: 0.098 | inactive: -0.016 | inactive: 0.037 | inactive: 0.038 | inactive: 0.058 | inactive: -0.015 | inactive: 0.004 | inactive: -0.045 | inactive: 0.002 | inactive: 0.043 | inactive: -0.016 | inactive: -0.025 | inactive: 0.039
7 | SRGN (UniProt P10124) | inactive: 0.109 | inactive: 0.001 | inactive: -0.159 | inactive: -0.018 | inactive: 0.104 | inactive: -0.064 | inactive: -0.033 | inactive: -0.005 | inactive: -0.022 | inactive: 0.101 | inactive: 0.069 | inactive: 0.084 |  | inactive: -0.079 | inactive: -0.064 | inactive: 0.177 | inactive: 0.093 | inactive: 0.059 | inactive: -0.086 | inactive: 0.043
8 | SSX5 isoform 2 (UniProt O60225) | inactive: -0.081 | inactive: 0 | inactive: 0.032 | inactive: -0.261 |  | inactive: -0.018 | inactive: -0.065 | inactive: 0.031 | active: -0.926 | inactive: 0.049 |  | inactive: 0.028 | inactive: -0.089 |  | inactive: -0.003 | inactive: 0.143 | inactive: 0.062 | inactive: -0.188 | inactive: 0.013 | 
9 | STEAP3 isoform 2 (UniProt Q658P3) | inactive: 0.011 | inactive: -0.001 | inactive: -0.121 |  | inactive: -0.034 | inactive: -0.013 | inactive: 0.032 | inactive: -0.037 | inactive: -0.034 | inactive: 0.108 | inactive: 0.056 | inactive: 0.049 | inactive: -0.006 | inactive: 0.002 | inactive: -0.04 | inactive: 0.002 | inactive: 0.035 | inactive: 0.082 | inactive: -0.035 | inactive: -0.041
10 | SSR4 (UniProt P51571) | inactive: 0.015 | inactive: 0.053 | inactive: -0.005 | inactive: -0.006 | inactive: -0.036 | inactive: -0.02 | inactive: 0.071 | inactive: -0.022 | inactive: -0.011 | inactive: 0.047 | inactive: -0.027 | inactive: 0.009 | inactive: 0.017 | inactive: -0.009 | inactive: -0.006 | inactive: 0.052 | inactive: -0.015 | inactive: 0.019 | inactive: 0.017 | inactive: 0.004
11 | SSR3 isoform 2 (UniProt Q9UNL2) | inactive: -0.004 | inactive: -0.052 | inactive: 0.125 | inactive: 0.016 | inactive: 0 | inactive: -0.013 | inactive: 0.067 | inactive: 0.014 | inactive: 0.291 | inactive: -0.031 | inactive: 0.029 | inactive: 0.066 | inactive: 0.006 | inactive: 0.025 | inactive: 0.043 | inactive: -0.22 | inactive: -0.034 | inactive: -0.016 | inactive: -0.04 | inactive: 0.018

Fetched one by one from above:
Row | Target | log2 fold change [1] | log2 fold change [2] | log2 fold change [3] | log2 fold change [4] | log2 fold change [5] | log2 fold change [6] | log2 fold change [7] | log2 fold change [8] | log2 fold change [9] | log2 fold change [10] | log2 fold change [11] | log2 fold change [12] | log2 fold change [13] | log2 fold change [14] | log2 fold change [15] | log2 fold change [16] | log2 fold change [17] | log2 fold change [18] | log2 fold change [19] | log2 fold change [20]
7 | SRGN (UniProt P10124) | inactive: 0.109 | inactive: 0.001 | inactive: -0.159 | inactive: -0.018 | inactive: 0.104 | inactive: -0.064 | inactive: -0.033 | inactive: -0.005 | inactive: -0.022 | inactive: 0.101 | inactive: 0.069 | inactive: 0.084 |  | inactive: -0.079 | inactive: -0.064 | inactive: 0.177 | inactive: 0.093 | inactive: 0.059 | inactive: -0.086 | inactive: 0.043
2 | SPART (UniProt Q8N0X7) | inactive: -0.039 | inactive: 0.017 | inactive: -0.015 | inactive: 0.01 | inactive: -0.008 | inactive: 0.017 | inactive: -0.038 | inactive: -0.013 | inactive: 0.015 | inactive: -0.045 | inactive: 0.008 | inactive: -0.054 | inactive: 0.083 | inactive: 0.027 | inactive: -0.014 | inactive: -0.02 | inactive: 0.008 | inactive: 0.086 | inactive: 0.024 | inactive: -0.009
